Reference: the supplement of paper PMC8728848
This is one part of the list.

Key:
Test in all cases: glycan array binding signal (z-score within array); higher = stronger binding
Conditions in all cases: glycan notation: IUPAC condensed, linker removed
Gal3S6S(b1-4)GlcNAc = biological target: Gal3S6S(b1-4)GlcNAc
Summary of the method: (§1)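 Glycan array binding is given as a within-array Z-score, which can be read as non-binding when negative. The arrays, 3228 of them, came from the Consortium for Functional Glycomics database and were retained only where the protein sequence was available. Z-scores were averaged across arrays of the same protein sequence at different concentrations or buffers and across linkers.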

Gal3S6S(b1-4)GlcNAc6S = biological target: Gal3S6S(b1-4)GlcNAc6S
Summary of the method: as §1

Gal4S(b1-4)GlcNAc = biological target: Gal4S(b1-4)GlcNAc
Summary of the method: as §1

Gal4S6S(b1-4)GlcNAc = biological target: Gal4S6S(b1-4)GlcNAc
Summary of the method: as §1

Gal6P(b1-4)GlcNAc = biological target: Gal6P(b1-4)GlcNAc
Summary of the method: as §1

Gal6S(b1-3)GlcNAc = biological target: Gal6S(b1-3)GlcNAc
Summary of the method: as §1

Gal6S(b1-3)GlcNAc6S = biological target: Gal6S(b1-3)GlcNAc6S
Summary of the method: as §1

Gal6S(b1-4)Glc = biological target: Gal6S(b1-4)Glc
Summary of the method: as §1

Gal6S(b1-4)Glc6S = biological target: Gal6S(b1-4)Glc6S
Summary of the method: as §1

Gal6S(b1-4)GlcNAc = biological target: Gal6S(b1-4)GlcNAc
Summary of the method: as §1

Gal6S(b1-4)GlcNAc6S = biological target: Gal6S(b1-4)GlcNAc6S
Summary of the method: as §1

GalNAc(a1-3)Gal = biological target: GalNAc(a1-3)Gal
Summary of the method: as §1

GalNAc(a1-3)GalNAc = biological target: GalNAc(a1-3)GalNAc
Summary of the method: as §1

[1] = biological target: GalNAc(a1-3)GalNAc(b1-3)Gal(a1-4)Gal(b1-4)Glc
Summary of the method: as §1

[2] = biological target: GalNAc(a1-3)GalNAc(b1-3)Gal(a1-4)Gal(b1-4)GlcNAc
Summary of the method: as §1

GalNAc(b1-3)Gal = biological target: GalNAc(b1-3)Gal
Summary of the method: as §1

[3] = biological target: GalNAc(b1-3)Gal(a1-4)Gal(b1-4)GlcNAc
Summary of the method: as §1

[4] = biological target: GalNAc(b1-3)Gal(a1-4)Gal(b1-4)GlcNAc(b1-3)Gal(b1-4)Glc
Summary of the method: as §1

[5] = biological target: GalNAc(b1-3)Gal(a1-6)Gal(b1-4)Glc
Summary of the method: as §1

GalNAc(b1-3)GalNAc = biological target: GalNAc(b1-3)GalNAc
Summary of the method: as §1

GalNAc(b1-3)GlcNAc = biological target: GalNAc(b1-3)GlcNAc
Summary of the method: as §1

GalNAc(b1-4)Gal(b1-4)Glc = biological target: GalNAc(b1-4)Gal(b1-4)Glc
Summary of the method: as §1

GalNAc(b1-4)GlcNAc = biological target: GalNAc(b1-4)GlcNAc
Summary of the method: as §1

[6] = biological target: GalNAc(b1-4)GlcNAc(b1-2)Man
Summary of the method: as §1

[7] = biological target: GalNAc(b1-4)GlcNAc(b1-2)Man(a1-3)[GalNAc(b1-4)GlcNAc(b1-2)Man(a1-6)]Man(b1-4)GlcNAc(b1-4)GlcNAc
Summary of the method: as §1

[8] = biological target: GalNAc(b1-4)GlcNAc(b1-3)GalNAc(b1-4)GlcNAc
Summary of the method: as §1

GalNAc(b1-4)GlcNAc6S = biological target: GalNAc(b1-4)GlcNAc6S
Summary of the method: as §1

GalNAc(b1-6)GalNAc = biological target: GalNAc(b1-6)GalNAc
Summary of the method: as §1

GalNAc3S(b1-4)GlcNAc = biological target: GalNAc3S(b1-4)GlcNAc
Summary of the method: as §1

GalNAc3S(b1-4)GlcNAc3S = biological target: GalNAc3S(b1-4)GlcNAc3S
Summary of the method: as §1

[9] = biological target: GalNAc3S(b1-4)[Fuc(a1-3)]GlcNAc
Summary of the method: as §1

GalNAc4S6S(b1-4)GlcNAc = biological target: GalNAc4S6S(b1-4)GlcNAc
Summary of the method: as §1

GalNAc6S(b1-4)GlcNAc = biological target: GalNAc6S(b1-4)GlcNAc
Summary of the method: as §1

Glc(a1-4)Glc = biological target: Glc(a1-4)Glc
Summary of the method: as §1

[10] = biological target: Glc(a1-4)Glc(a1-4)Glc(a1-4)Glc
Summary of the method: as §1

Glc(a1-6)Glc(a1-6)Glc = biological target: Glc(a1-6)Glc(a1-6)Glc
Summary of the method: as §1

[11] = biological target: Glc(a1-6)Glc(a1-6)Glc(a1-6)Glc
Summary of the method: as §1

Glc(b1-4)Glc = biological target: Glc(b1-4)Glc
Summary of the method: as §1

B1: Epa3to2 (Candida glabrata) (protein)
chain: MGSSHHHHHHSSGLVPRGSHMKRELSSQNPFGYPIGCSPQDVAIIPGLTMELYSYPIVSGTPPNCYDASYVDPEYPRTGYLKRKMVGKSTGVTGNLNYKYSVEKACMVKYGNLPAGYNYNEPLTVSNFTMILYGYFKAQTTGLHTFFVNADDLLYINFGAGNAFDCCKREDSKTKLGEYVAYDIWHVDSSKNKVSLFLEKDLYYPIRMFFNNRDNNSSLDLSFSVNGATDQISDFSGYLYSVPDQPDTCPAHIGYDTTCR
B1 was tested, and the “glycan array binding signal (z-score)” value (Gal3S6S(b1-4)GlcNAc) was 2.42, the “glycan array binding signal (z-score)” value (Gal3S6S(b1-4)GlcNAc6S) was 0.129 and the “glycan array binding signal (z-score)” value (Gal4S(b1-4)GlcNAc) was -0.281. For the same binder, the “glycan array binding signal (z-score)” value (Gal4S6S(b1-4)GlcNAc) was -0.411, the “glycan array binding signal (z-score)” value (Gal6P(b1-4)GlcNAc) was -0.6 and the “glycan array binding signal (z-score)” value (Gal6S(b1-3)GlcNAc) was 0.814. The “glycan array binding signal (z-score)” value (Gal6S(b1-3)GlcNAc6S) was 3.65, the “glycan array binding signal (z-score)” value (Gal6S(b1-4)Glc) was 0.068 and the “glycan array binding signal (z-score)” value (Gal6S(b1-4)Glc6S) was -0.051. The “glycan array binding signal (z-score)” value (Gal6S(b1-4)GlcNAc) was -0.325, the “glycan array binding signal (z-score)” value (Gal6S(b1-4)GlcNAc6S) was 2.45 and the “glycan array binding signal (z-score)” value (GalNAc(a1-3)Gal) was 1.49. The “glycan array binding signal (z-score)” value (GalNAc(a1-3)GalNAc) was -0.396, the “glycan array binding signal (z-score)” value [1] was -0.532 and the “glycan array binding signal (z-score)” value [2] was 0.729. The “glycan array binding signal (z-score)” value (GalNAc(b1-3)Gal) was 0.055, the “glycan array binding signal (z-score)” value [3] was 0.528 and the “glycan array binding signal (z-score)” value [4] was -0.185. For the same binder, the “glycan array binding signal (z-score)” value [5] was 1.12, the “glycan array binding signal (z-score)” value (GalNAc(b1-3)GalNAc) was -1 and the “glycan array binding signal (z-score)” value (GalNAc(b1-3)GlcNAc) was -0.249. The “glycan array binding signal (z-score)” value (GalNAc(b1-4)Gal(b1-4)Glc) was 1.02, the “glycan array binding signal (z-score)” value (GalNAc(b1-4)GlcNAc) was 0.112 and the “glycan array binding signal (z-score)” value [6] was -0.81. The “glycan array binding signal (z-score)” value [7] was 0.675, the “glycan array binding signal (z-score)” value [8] was 0.301 and the “glycan array binding signal (z-score)” value (GalNAc(b1-4)GlcNAc6S) was -0.544. For the same binder, the “glycan array binding signal (z-score)” value (GalNAc(b1-6)GalNAc) was 0.101, the “glycan array binding signal (z-score)” value (GalNAc3S(b1-4)GlcNAc) was -0.257 and the “glycan array binding signal (z-score)” value (GalNAc3S(b1-4)GlcNAc3S) was -0.229. The “glycan array binding signal (z-score)” value [9] was -1.03, the “glycan array binding signal (z-score)” value (GalNAc4S6S(b1-4)GlcNAc) was -0.484 and the “glycan array binding signal (z-score)” value (GalNAc6S(b1-4)GlcNAc) was -0.991. For the same binder, the “glycan array binding signal (z-score)” value (Glc(a1-4)Glc) was -0.041, the “glycan array binding signal (z-score)” value [10] was 1.2 and the “glycan array binding signal (z-score)” value (Glc(a1-6)Glc(a1-6)Glc) was -0.102. For the same binder, the “glycan array binding signal (z-score)” value [11] was -0.53 and the “glycan array binding signal (z-score)” value (Glc(b1-4)Glc) was -0.994.
